We go through four compounds from patent US10294204B2, “Fluorescence compounds and preparation method thereof” (BioActs Co., Ltd., priority 2016, dated 2019).

Data set [1] concerns Gt anti-Rb IgG H+L Secondary Ab. In words: Test Example 5 (2): labeling ratio (D/P ratio) of 650 wavelength dye depending on reacted amount of dye. Conditions: Ab 0.5 mg. As for the experimental part: Each of Compound 20 and the reference fluorescent dye (Alexa Fluor 647 NHS ester) is used for labeling 0.5 mg of an antibody (Pierce™ Gt anti-Rb IgG H+L Secondary Ab, 10 mg/mL, Thermo) at a different weight ratio. For reference, Compound 20 has a molecular weight of 1254.7 g/mole and the reference fluorescent dye has a molecular weight of 956.1 g/mole. The same labeling method as Test Example 5-(1) is repeated, except that the amount of a dye is set to 0.01, 0.03, 0.05, 0.10 or 0.14 mg. Each conjugate isolated after the labeling and purification is analyzed for absorbance at a wavelength of 280/650 nm, and the generally known mathematical formula is used to calculate labeling ratios. For Compound 20 and the reference fluorescent dye, a molar absorption coefficient of 239,000/cmM (in PBS), a protein molar absorption coefficient of 203,000/cmM and a correction factor (CF280) of 0.03 are used. […] When at least 0.10 mg (about 25 moles after molar conversion) of a dye is reacted without application of molar ratio, the labeling ratio of Compound 20 starts to be higher than that of the reference fluorescent dye. In addition, as mentioned above, Compound 20 has a molecular weight of 1254.7 g/mole which is larger than the molecular weight (956.1 g/mole) of the reference fluorescent dye (by about 30% or more). Thus, even though Compound 20 and the reference fluorescent dye are used at the same weight, Compound 20 is introduced in a relatively smaller molar number as compared to the reference fluorescent dye.

Data set [2] has the same test system. In words: Test Example 5 (3),(4): fluorescence intensity of IgG conjugates of 650 wavelength dye depending on reacted amount and labeling ratio. Conditions: for tendency of fluorescence intensity depending on the reacted amount of dye: 0.01-0.14 mg dye per 0.5 mg antibody. The method, then:
The conjugates extracted from Test Example 5-(2) are used to compare the fluorescence intensity of Compound 20 with that of the reference fluorescent dye upon the labeling of a protein as a function of reacted amount. To the first line and the second line of a 96-well black plate, [IgG-Compound 20] conjugate and [IgG-reference fluorescent dye] conjugate is injected after diluting each conjugate at a ratio of 1/10 in the order of dye amount. To the fourth line, 1×PBS is introduced as a blank. All analytical samples are introduced in an amount of 100 μL and the protein concentration is the same with a neglectable error. Then, imaging is carried out in an FOBR Red channel and analysis based on a multilabel plate reader (Enspire 2300, Perkin Elmer) is performed in order to accomplish more accurate numerical comparison. Determination is carried out under adequate setting conditions including Ex. 650 nm/Em. 655 nm, a number of flashes of 200, or the like. […] The maximum fluorescence intensity is determined when 0.5 mg of the antibody reacts with 0.1 mg of Compound 20. When the reaction amount of Compound 20 is merely 0.03 mg, the fluorescence intensity is similar to the maximum value. Thus, it is expected that, Compound 20 is excellent as compared to the reference fluorescent dye and may show higher fluorescence even when used in a smaller amount for labeling a biomolecule.
Based on the results of Test Examples 5-(2) and 5-(3), the fluorescence intensity of each of Compound 20 and the reference fluorescent dye depending on labeling ratio is shown in FIG. 13. […] It can be also seen that even when the reacted amount of dye is smaller, i.e., when the labeling ratio is lower, Compound 20 accomplishes higher fluorescence intensity as compared to the reference fluorescent dye. […] In the case of the reference fluorescent dye, auto-quenching proceeds form a relatively low labeling ratio of about 6.

Data set [3] concerns Gt anti-Ms IgG H+L Secondary Ab. Description: Test Example 5 (1): labeling of antibody with 552 wavelength dyes, D/P ratio and conjugate fluorescence. The settings on record: 0.5 mg antibody. The method, then: Compound 18 and the reference fluorescent dye (Alexa Fluor 555 NHS ester) are used to label an antibody (Pierce™ Gt anti-Ms IgG H+L Secondary Ab, 10 mg/mL, Thermo) and the resultant conjugates are compared with each other in terms of fluorescence intensity. Each of Compound 18 and the reference fluorescent dye is dissolved into DMF to provide a stock solution at 10 mg/mL. Samples 1 and 2 are obtained from 0.5 mg of the antibody through the reaction ratio with a dye of 25 mol and Sample 3 is prepared through the reaction with 0.083 mg of Compound 18 in order to further determine the result obtained under the same weight ratio based on the reference fluorescent dye.
The final reaction concentration of the antibody is set to 2 mg/mL and a reaction buffer is prepared by mixing 10 mM phosphate buffered saline (hereinafter, 1×PBS) with pH 9.4 1M sodium-carbonate-bicarbonate buffer (hereinafter, 1M CBC) so that the final pH may be about 8.3-8.5. Samples 1-3 are allowed to react under room temperature/dark chamber/agitation conditions for 1 hour, and purified through a column filled with Sephadex G-25 resin (GE Healthcare) to isolate the conjugates. The resin is subjected to buffer equilibrium (buffer change) with 1×PBS before its use. At a wavelength of 280/552 nm, each conjugate is subjected to absorption spectrometry (Cary 8454 UV-Vis spectrophotometer, Agilent) to determine the Dye/Protein ratio (D/P ratio) first. Next, the conjugates are determined for fluorescence (LS 55 Fluorescence spectrometer, Perkin Elmer) to carry out comparison of fluorescence intensity. Fluorescence determination is carried out by mixing each conjugate with 3 mL of 1×PBS to perform dilution and then under the setting of Excitation 552 nm.
The same results can be seen herein.

The mark [4] stands for this setting: reaction ratio with dye of 25 mol (Samples 1 and 2).

Consider “Alexa Fluor 647 NHS ester [reference compound]”, for which the D/P ratio in data set [1] (dye 0.01 mg (1 uL)) came out at 1.35; in data set [1] (dye 0.03 mg (3 uL)), 3.42; in data set [1] (dye 0.05 mg (5 uL)) it was 5.37; in data set [1] (dye 0.10 mg (10 uL)), 7.27; in data set [1] (dye 0.14 mg (14 uL)), 9.76. Further, in data set [2], the “tendency of fluorescence intensity depending on the reacted amount of dye” value was “decrease in intensity after 0.05 mg”. In data set [2] (FIG. 13), the “labeling ratio from which auto-quenching proceeds” value is given as “about 6”.
Regarding `CC1(CCCCCC(=O)NCCCNc2nc(Cl)nc(NCCCCCC(=O)ON3C(=O)CCC3=O)n2)C(/C=C/C=C2/N(CCCS(=O)(=O)O)c3ccc(S(=O)(=O)O)cc3C2(C)C)=[N+](CCCS(=O)(=O)O)c2ccc(S(=O)(=O)[O-])cc21` (centres unmarked) [Compound 18], the D/P ratio is 7.12 in data set [3] (0.083 mg of dye (8.30 uL), same weight as reference dye (Sample 3)) and 8.42 in data set [3] (setting [4]).
As to “Alexa Fluor 555 NHS ester [reference compound]”, the D/P ratio in data set [3] (setting [4]) was 8.71.
On to `CC1(CCCCCC(=O)NCCCNc2nc(Cl)nc(NCCCCCC(=O)ON3C(=O)CCC3=O)n2)C(/C=C/C=C/C=C2/N(CCCS(=O)(=O)O)c3ccc(S(=O)(=O)O)cc3C2(C)C)=[N+](CCCS(=O)(=O)[O-])c2ccc(S(=O)(=O)O)cc21` (centres unmarked) [Compound 20], for which the D/P ratio was 1.04 in data set [1] (dye 0.01 mg (1 uL)); 3.01 in data set [1] (dye 0.03 mg (3 uL)); 4.45 in data set [1] (dye 0.05 mg (5 uL)); 7.40 in data set [1] (dye 0.10 mg (10 uL)); 10.13 in data set [1] (dye 0.14 mg (14 uL)). For the same compound, the “reacted amount of dye giving the maximum fluorescence intensity” value in data set [2] (0.5 mg of the antibody) worked out at 0.1 mg. Besides, the “tendency of fluorescence intensity depending on the reacted amount of dye” value in data set [2] is given as “continuous increase in intensity even up to 0.10 mg”.
